# Measured values from patent publication US20150315279A1 (CELLERANT THERAPEUTICS, published 2015).
# No constants are given. Whether binding was seen depends on the method and setting. No end group written: not given here.
# B1: monoclonal antibody 4G9 (antibody, V domains shown)
# VH: QVQLQQSGTELVRPGASVKLSCKASGYTFTDYEMHWVKQTPVHGLEWIGAIDPGTGGIAYNQKFKGKATLTADKSSSTAYMELRSLTSEDSAVYYCTLYDYDLAYWGQGTLVTVSA
# VL: DVLMTQTPLSLPVSLGDQASISCRSSQSIVHSNGNTYLEWFLQKPGQSPKLLIYTVSNRFSGVPDRFSGSGSGTDFTLKISRVEAEDLGVYYCFQGSHVPPTFGGGTKLEIK
# Molecular target: keyhole limpet hemocyanin
# Assay: ELISA, KLH coated at 2 ug/ml
binder,measurement,value
B1,binding,no binding (tested: 20 ug/ml)
